Reference: US20070077202A1, “Histostain composition for endoscope” (PENTAX Corporation, priority 2005, published 2007)
At least one compound was matched to its structure with a doubt left.

System: rat large intestine
Assay: staining of formalin-fixed rat large intestine, observed with a confocal microscope
Settings: adjusted to pH 9; same manner as Examples 2 and 5

For `O=C1OC2(c3ccc(O)cc3Oc3cc(O)ccc32)c2ccccc21` [fluorescein], the staining and observability was “the tissue was stained but the fluorescence intensity of fluorescein caused a higher background, which made the observation difficult”.
